In patent publication US20230146455A1 (Yuyu Pharma, Inc., priority 2020, published 2023):

Assays:
MMP-9 = test: Example 9 Luminex, LPS hPBMCs: MMP-9; assay type: cell-based, human
Description: (§1) Treatment Human PBMCs were pretreated with YY-101, YDE-011 and YDE-043 or reference compound; Xiidra® at various concentration (ranging from 1 nM to 100 uM) for 2 h before stimulation. An equal volume of 0.5% DMSO was used as a vehicle control. Then, the cells were treated with LPS at 5 ug/ml. The supernatants from treated cells were harvested at 24 h and placed in a 96 well for Luminex cytokine & chemokine profiling using a Luminex 200 multiplex assay (Luminex; R&D system, USA).
(§2) The main study arm with triplicate wells per group in a 24-well plate: • 1. Blank • 2. PBMC: 0.5% DMSO • 3. PBMC+LPS (5 ug/ml) • 4. PBMC+YY-101 100 uM • 5. PBMC+YY-101 10 uM • 6. PBMC+YY-101 1 uM • 7. PBMC+YY-101 0.1 uM • 8. PBMC+YY-101 0.01 uM • 9. PBMC+LPS (5 ug/ml)+Xiidra®100 uM • 10. PBMC+LPS (5 ug/ml)+Xiidra® 10 uM • 11. PBMC+LPS (5 ug/ml)+Xiidra® 1 uM • 12. PBMC+LPS (5 ug/ml)+Xiidra®0.1 uM • 13. PBMC+LPS (5 ug/ml)+Xiidra®0.01 uM • 14. PBMC+LPS (5 ug/ml)+Xiidra®0.001 uM • 15. PBMC+LPS (5 ug/ml)+YY-101 100 uM • 16. PBMC+LPS (5 ug/ml)+YY-101 10 uM • 17. PBMC+LPS (5 ug/ml)+YY-101 1 uM • 18. PBMC+LPS (5 ug/ml)+YY-101 0.1 uM • 19. PBMC+LPS (5 ug/ml)+YY-101 0.01 uM • 20. PBMC+LPS (5 ug/ml)+YY-101 0.001 uM • 21. PBMC+LPS (5 ug/ml)+YDE-011 100 uM • 22. PBMC+LPS (5 ug/ml)+YDE-011 10 uM • 23. PBMC+LPS (5 ug/ml)+YDE-011 1 uM • 24. PBMC+LPS (5 ug/ml)+YDE-011 0.1 uM • 25. PBMC+LPS (5 ug/ml)+YDE-011 0.01 uM • 26. PBMC+LPS (5 ug/ml)+YDE-011 0.001 uM • 27. PBMC+LPS (5 ug/ml)+YDE-043 100 uM • 28. PBMC+LPS (5 ug/ml)+YDE-043 10 uM • 29. PBMC+LPS (5 ug/ml)+YDE-043 1 uM • 30. PBMC+LPS (5 ug/ml)+YDE-043 0.1 uM • 31. PBMC+LPS (5 ug/ml)+YDE-043 0.01 uM • 32. PBMC+LPS (5 ug/ml)+YDE-043 0.001 uM
(§3) Multiplex assay was used to measure 30 cytokines and chemokines. The 1:2, 1:10 and 1:200 diluted cell supernatant and serial dilution of the standard were dispensed into a 96 well plate at 50 ul/well. Then, the pre-mixed cocktail of antibody-coated magnetic beads was dispensed at 50 ul/well and incubated at room temperature for 2 h in a horizontal orbital microplate shaker at 800±500 rpm. The beads were washed using a magnetic device to prevent loss. The biotin-antibody was dispensed in 50 ul of each well and incubated at room temperature for 1 h in a shaker at 800±500 rpm. After washing, streptavidin-PE was added at 50 ul/well and incubated at room temperature for 30 min in a shaker under the same conditions. Finally, after washing, wash buffer (100 ul/well) was added to the plate and incubated in a shaker for 2 min. The Luminex™ 200 setting were set according to the manufacturer's protocol. The data was calculated with a standard five-parameter logistic nonlinear regression analysis of the data (xPonent software 4.2, USA). The levels of cytokine/chemokine are normalized to the live cell counts (1×10^5 cells/mL) and presented as concentrations per mL (pg/mL or ng/mL).

IFN-gamma = test: Example 9 Luminex, LPS hPBMCs: IFN-gamma; assay type: cell-based, human
Description: as §1, §2, §3

Q: `CC(C)C[C@H](NC(=O)CNC(=O)[C@H](CC(=O)O)NC(=O)[C@H](CCC(N)=O)NC(=O)CNC(=O)[C@@H]1C[C@@H](O)CN1)C(=O)N[C@@H](C)C(=O)NCC(=O)N1CCC[C@H]1C(=O)N[C@@H](CCCCN)C(=O)O` [YY-101] (H-[Hyp]GQDGLAGPK-OH; N-terminus and C-terminus assumed) was tested. Which “MMP-9 MFI” value (MMP-9; PBMC + 1 uM, no LPS, single replicates) did it give?
A: 1451.5 and 1598.5

Q: And the “MMP-9 MFI” value (MMP-9; PBMC + 10 uM, no LPS, Mean)?
A: 2205.8

Q: What about the “MMP-9 MFI” value (MMP-9; PBMC + 10 uM, no LPS, single replicates) of the same compound?
A: 2812.5 and 1599.0

Q: And the “MMP-9 MFI” value (MMP-9; PBMC + 100 uM, no LPS, Mean)?
A: 1161.3

Q: What about the “MMP-9 MFI” value (MMP-9; PBMC + 100 uM, no LPS, single replicates) of the same compound?
A: 1309.5 and 1013.0

Q: What about the “MMP-9 MFI” value (MMP-9; PBMC + LPS(5 ug/ml) + 0.001 uM, Mean) of the same compound?
A: 41.0

Q: And the “MMP-9 MFI” value (MMP-9; PBMC + LPS(5 ug/ml) + 0.001 uM, single replicates)?
A: 36.0 and 36.5 and 50.5

Q: What about the “MMP-9 MFI” value (MMP-9; PBMC + LPS(5 ug/ml) + 0.01 uM, Mean) of the same compound?
A: 35.8

Q: And the “MMP-9 MFI” value (MMP-9; PBMC + LPS(5 ug/ml) + 0.01 uM, single replicates)?
A: 37.5 and 36.5 and 33.5

Q: And the “MMP-9 MFI” value (MMP-9; PBMC + LPS(5 ug/ml) + 0.1 uM, Mean)?
A: 30.3

Q: And the “MMP-9 MFI” value (MMP-9; PBMC + LPS(5 ug/ml) + 0.1 uM, single replicates)?
A: 28.5 and 31.0 and 31.5

Q: And the “MMP-9 MFI” value (MMP-9; PBMC + LPS(5 ug/ml) + 1 uM, Mean)?
A: 38.5

Q: What about the “MMP-9 MFI” value (MMP-9; PBMC + LPS(5 ug/ml) + 1 uM, single replicates) of the same compound?
A: 36.5 and 37.5 and 41.5

Q: What about the “MMP-9 MFI” value (MMP-9; PBMC + LPS(5 ug/ml) + 10 uM, Mean) of the same compound?
A: 36.8

Q: And the “MMP-9 MFI” value (MMP-9; PBMC + LPS(5 ug/ml) + 10 uM, single replicates)?
A: 37.5 and 38.5 and 34.5

Q: And the “MMP-9 MFI” value (MMP-9; PBMC + LPS(5 ug/ml) + 100 uM, Mean)?
A: 27.7

Q: What about the “MMP-9 MFI” value (MMP-9; PBMC + LPS(5 ug/ml) + 100 uM, single replicates) of the same compound?
A: 28.0 and 28.5 and 26.5

Q: What about the “MFI (Bead name: IFN-gamma)” value (IFN-gamma; PBMC + LPS(5 ug/ml) + test article 0.001 uM, Mean) of the same compound?
A: 646.3

Q: What about the “MFI (Bead name: IFN-gamma)” value (IFN-gamma; PBMC + LPS(5 ug/ml) + test article 0.001 uM, single replicates) of the same compound?
A: 619.0 and 724.0 and 596.0

Q: And the “MFI (Bead name: IFN-gamma)” value (IFN-gamma; PBMC + LPS(5 ug/ml) + test article 0.01 uM, Mean)?
A: 850.3

Q: And the “MFI (Bead name: IFN-gamma)” value (IFN-gamma; PBMC + LPS(5 ug/ml) + test article 0.01 uM, single replicates)?
A: 940.0 and 906.0 and 705.0

Q: What about the “MFI (Bead name: IFN-gamma)” value (IFN-gamma; PBMC + LPS(5 ug/ml) + test article 0.1 uM, Mean) of the same compound?
A: 475.5

Q: And the “MFI (Bead name: IFN-gamma)” value (IFN-gamma; PBMC + LPS(5 ug/ml) + test article 0.1 uM, single replicates)?
A: 527.0 and 408.0 and 491.5

Q: And the “MFI (Bead name: IFN-gamma)” value (IFN-gamma; PBMC + LPS(5 ug/ml) + test article 1 uM, Mean)?
A: 611.5

Q: What about the “MFI (Bead name: IFN-gamma)” value (IFN-gamma; PBMC + LPS(5 ug/ml) + test article 1 uM, single replicates) of the same compound?
A: 658.0 and 645.5 and 531.0

Q: What about the “MFI (Bead name: IFN-gamma)” value (IFN-gamma; PBMC + LPS(5 ug/ml) + test article 10 uM, Mean) of the same compound?
A: 709.3

Q: And the “MFI (Bead name: IFN-gamma)” value (IFN-gamma; PBMC + LPS(5 ug/ml) + test article 10 uM, single replicates)?
A: 827.5 and 691.0 and 609.5

Q: What about the “MFI (Bead name: IFN-gamma)” value (IFN-gamma; PBMC + LPS(5 ug/ml) + test article 100 uM, Mean) of the same compound?
A: 503.0

Q: And the “MFI (Bead name: IFN-gamma)” value (IFN-gamma; PBMC + LPS(5 ug/ml) + test article 100 uM, single replicates)?
A: 504.0 and 555.0 and 450.0

Q: What about the “MFI (Bead name: IFN-gamma)” value (IFN-gamma; PBMC + test article 0.01 uM, no LPS, Mean) of the same compound?
A: 6.5

Q: What about the “MFI (Bead name: IFN-gamma)” value (IFN-gamma; PBMC + test article 0.01 uM, no LPS, single replicates) of the same compound?
A: 5.0 and 8.0

Q: And the “MFI (Bead name: IFN-gamma)” value (IFN-gamma; PBMC + test article 0.1 uM, no LPS, Mean)?
A: 6.5

Q: And the “MFI (Bead name: IFN-gamma)” value (IFN-gamma; PBMC + test article 0.1 uM, no LPS, single replicates)?
A: 5.0 and 8.0

Q: What about the “MFI (Bead name: IFN-gamma)” value (IFN-gamma; PBMC + test article 1 uM, no LPS, Mean) of the same compound?
A: 6.0

Q: And the “MFI (Bead name: IFN-gamma)” value (IFN-gamma; PBMC + test article 1 uM, no LPS, single replicates)?
A: 5.0 and 7.0

Q: And the “MFI (Bead name: IFN-gamma)” value (IFN-gamma; PBMC + test article 10 uM, no LPS, Mean)?
A: 12.3

Q: And the “MFI (Bead name: IFN-gamma)” value (IFN-gamma; PBMC + test article 10 uM, no LPS, single replicates)?
A: 15.5 and 9.0

Q: And the “MFI (Bead name: IFN-gamma)” value (IFN-gamma; PBMC + test article 100 uM, no LPS, Mean)?
A: 9.5

Q: And the “MFI (Bead name: IFN-gamma)” value (IFN-gamma; PBMC + test article 100 uM, no LPS, single replicates)?
A: 12.0 and 7.0

Where “and” joins values, the source holds several entries; their conditions need not be identical. Equal entries are not always repeated. Where no unit stands, none is given here, and values compare only within one read-out. Where a SMILES comes first, the peptide text is derived from it. [ ]: non-standard residue; d: D form. Hyp = O=C(O)[C@@H]1C[C@@H](O)CN1
